Data on one substance can be found in paper PMC4721948.

In this experiment the target is T1, APPL1 (adaptor protein containing pleckstrin homology domain, phosphotyrosine binding domain and leucine zipper motif), wild type (UniProt Q9UKG1).
T1 sequence: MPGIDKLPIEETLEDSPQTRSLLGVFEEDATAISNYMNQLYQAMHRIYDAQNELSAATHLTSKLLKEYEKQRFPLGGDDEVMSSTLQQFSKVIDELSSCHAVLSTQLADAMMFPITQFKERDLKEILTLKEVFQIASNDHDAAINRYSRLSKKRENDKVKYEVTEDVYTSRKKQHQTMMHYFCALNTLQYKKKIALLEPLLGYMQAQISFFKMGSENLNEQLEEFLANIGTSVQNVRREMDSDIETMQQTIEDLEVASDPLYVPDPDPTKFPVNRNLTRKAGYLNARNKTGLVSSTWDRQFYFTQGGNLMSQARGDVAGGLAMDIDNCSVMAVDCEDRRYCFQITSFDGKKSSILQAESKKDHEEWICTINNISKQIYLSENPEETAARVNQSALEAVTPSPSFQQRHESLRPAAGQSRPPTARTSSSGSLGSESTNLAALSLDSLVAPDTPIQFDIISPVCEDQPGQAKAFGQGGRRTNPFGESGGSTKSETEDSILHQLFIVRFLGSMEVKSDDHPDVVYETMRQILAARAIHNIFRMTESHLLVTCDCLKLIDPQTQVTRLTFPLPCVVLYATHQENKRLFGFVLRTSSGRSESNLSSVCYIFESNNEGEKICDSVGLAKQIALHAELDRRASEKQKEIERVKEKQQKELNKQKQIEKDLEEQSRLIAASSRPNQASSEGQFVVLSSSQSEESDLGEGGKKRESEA
Put plainly: co-IP; lysates of transfected HEK293 cells overexpressing APP (APPwt, APPmv or APP_(AENATA)) and APPL1 (wt or ΔPTB); IP with antibodies against APPL1 or against APP (C1/6.1 or 6E10), immunoblot; 10% of total lysate as input. For orientation: Immunoblotting shows a protein as a band on a membrane.

No constants are given. Whether binding was seen depends on the method and setting. Binding seen in cells or lysates may run through a third protein.

As for “wild-type human β-amyloid precursor protein, full-length (flAPP) (from UniProt P05067-4 18-695)”, the binding entry is “no binding”.
